{
  "source": "patent US9180077B2",
  "about": "“Green tea extracts of improved bioavailability” (Nestec S.A., priority 2009, dated 2015)",
  "experiment": "Stability study of green tea catechins: incubation in Na-Pi buffer pH 7.4 at 37° C., HPLC",
  "type": "physicochemical",
  "conditions": "GTE 0.1%, pH 7.4, 37° C",
  "description": "Samples were prepared according to the following method. Briefly, each sample was treated with acetic acid (30% final concentration) for 30 min and then added to an aqueous solution containing 10% acetonitrile, 0.5 mg/mL EDTA and 0.5 mg/mL ascorbic acid. The mix was then centrifuged for 30 min at 14′000×g and the supernatant analysed by HPLC. Following this protocol allows the complete recovery of all catechins.\nGreen tea catechins were determined by reverse phase HPLC using an analytical method based on the ISO FDIS 14502-2 method. The HPLC system used was a 1100 series Hewlett-Packard (Geneva, Switzerland) model equipped with an ultraviolet-visible photodiode array and a fluorimetric detector. Catechins were detected by UV absorption at 280.4 nm except for catechins and epicatechin that were detected by fluorescence (excitation: 280 nm; emission: 310 nm). Samples (10 μl) were separated on a Zorbax RX—C18 column (4.6 mm internal diameter×250 mm length, Agilent technologies). Flow rate was 1.0 mL/min.\nSample concentration of green tea catechins (C, EC, EgC, EgCg, ECg) were calculated based on the corresponding calibration curve and reported as % of the initial value (sample at t0). Since caffeine, endogenous to green tea samples, is stable under the selected assay conditions, it was used as internal standard for all calculations. […]",
  "data": [
    {"molecule": "O=C1O[C@H]([C@@H](O)CO)C(O)=C1O", "note": "[vitamin C, ascorbic acid]", "values": [
      {"measurement": "vitamin C concentration at which significant effects on catechin retention were visible", "setting": "selected concentrations", "result": 0.5, "unit": "mM"},
      {"measurement": "vitamin C concentration for maximum protection", "setting": "at 2 h", "result": "≥ 1", "unit": "mM"}
    ]}
  ]
}
